# This is one part of the list. Shown are side measurements of this screen, not its main read-out; they come without a call. Compounds called inactive in the main read-out are mostly missing here. The note in brackets gives the kind of curve behind each potency; many fits are weak.
# Experiment: qHTS Assay for Lipid Storage Modulators in Drosophila S3 Cells;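 as to cell number change: cells counted by Cell Tracker Red CMTPX staining in the red channel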
# Settings: BODIPY lipid droplet fluorescence, 18-24 h; for cell number change: measured here: cell count max response, cells fed with added oleic acid
# Method in brief: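 Laser-scanning cytometry quantifies lipid droplet accumulation (500–530 nm total intensity; droplet/cell object ratio) in oleic acid-fed (400 uM added) Drosophila S3 cells treated with a concentration series. 20 uM Triacsin C defined 100% inhibition.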
# [1] = measured here: cell number channel AC50, cells fed with added oleic acid
# [2] = measured here: lipid fluorescence (Fed channel) AC50, cells fed with added oleic acid
Structure (SMILES),cell number change [%],AC50 [1],AC50 [2]
Cc1ccc(NC(=O)[C@@H]2CCCN2S(=O)(=O)c2ccccc2C(F)(F)F)cc1S(=O)(=O)N1CCOCC1,-2.52,"0.082 µM [falling, partial curve, poor fit]",
N#C/C(N=Nc1ccccc1O)=N\Nc1ccccc1O,-86.7,"29.1 µM [falling, single point]",
COc1ccc(Cl)cc1C(=O)NCc1ccc2c(c1)OCO2,2.49,,
COc1cccc(CNC(=O)c2cc3c(C)nc4ccccc4c3o2)c1,-22,,"29.1 µM [falling, single point]"
C/C(=N\Nc1cc(C)nc(NCc2ccccc2)n1)c1cccc([N+](=O)[O-])c1,59.2,,"29.1 µM [rising, partial curve, poor fit]"
N#Cc1c(NC(=O)c2cnn3cccnc23)sc2c1CCCC2,39.3,"32.6 µM [rising, single point]","2.06 µM [rising, partial curve]"
COc1cc(C(=O)Nc2nc(-c3cccs3)cs2)cc(OC)c1OC,-34.5,"10.3 µM [falling, partial curve]",
CCOc1ccc(C(=O)Nc2ccc(S(=O)(=O)N3C[C@@H]4C[C@@H](C3)c3cccc(=O)n3C4)cc2)cc1,-42.4,"4.61 µM [falling, single point]","20.6 µM [falling, single point]"
O=C(Nc1nncs1)c1cccc(S(=O)(=O)N2CCc3ccccc32)c1,3.7,,
CN1C(=O)C2ON(c3ccccc3)C(c3cccs3)C2C1=O (centres undefined),-13.3,,"3.26 µM [falling, partial curve]"
Cc1nc2cc(S(=O)(=O)C(F)(F)F)ccc2s1,21.7,"1.03 µM [rising, full curve, poor fit]",
Cc1ccc(CNC(=O)c2cc(COc3c(F)cccc3F)on2)s1,24,,"1.46 µM [rising, full curve, poor fit]"
Nn1c(SCC(=O)NC(=O)Nc2ccc3c(c2)OCCO3)nnc1C1CC1,41.3,,"29.1 µM [rising, single point]"
CC1(C)CC(=O)c2cnc3c(C#N)cnn3c2C1,5.88,,"6.51 µM [rising, single point]"
CCc1nc(SCC(=O)NCCc2ccccc2)c2c(=O)n(C)c(=O)n(C)c2n1,-8.51,,"0.731 µM [rising, single point]"
Cc1cc(C(=O)O)ccc1-c1ccc(/C=C2\SC(=O)N(CC(=O)Nc3ccc4c(c3)OCO4)C2=O)o1,83.9,"25.9 µM [rising, partial curve, poor fit]","29.1 µM [falling, single point]"
C=CCNc1nc(N)c([N+](=O)[O-])c(NCc2ccccc2)n1,15.8,,"13 µM [rising, single point]"
CN1/C(=C\C=N\NC(=O)c2ccc(O)cc2)C(C)(C)c2ccccc21,,,"2.59 µM [falling, partial curve]"

Structure (SMILES),cell number change [%],AC50 [1],AC50 [2]
CCOc1ccc(C(=O)N(CC)CC(=O)Nc2ccc3c(c2)OCCO3)cc1OCC,8.96,"0.146 µM [falling, full curve, poor fit]","5.8 µM [rising, full curve]"
COc1ccc(/C=C/C(=O)N(C)Cc2cccs2)cc1S(=O)(=O)N1CCOCC1,23.6,"0.206 µM [rising, single point]",
C=C(C)C1CC=C(CN2CC(C)OC(C)C2)CC1 (centres undefined),-14.5,"0.82 µM [rising, single point]","0.00517 µM [rising, full curve, poor fit]"
Cn1c(N)c(C(=O)COC(=O)c2ccco2)c(=O)n(C)c1=O,-4.95,,
c1ccc2c(c1)CCCN2Cc1nnnn1C1CCCC1,14.4,,
CNC(=O)C(Sc1ccccc1)c1ccccc1 (centres undefined),4.36,,"0.731 µM [falling, full curve]"
COc1ccc(Br)cc1/C=N/NC(=O)c1cccc(S(=O)(=O)N2CCOCC2)c1,-11.9,,"0.92 µM [falling, full curve, poor fit]"
Cc1nc2c(-c3ccc(F)cc3)cnn2c(N)c1-c1ccccc1,-22.8,,"23.1 µM [falling, single point]"
Cc1nn(C)cc1C(C(=O)NC1CCCCC1)N(C(=O)Cc1cccs1)c1ccc(C(C)C)cc1 (centres undefined),24.7,,"29.1 µM [rising, single point]"
O=C(O)C1C(C(=O)O)C1(c1ccccc1)c1ccccc1 (centres undefined),-18.3,,"6.51 µM [falling, full curve, poor fit]"
Cc1ccc(F)c(NC(=O)c2ccc(Cn3cc(Cl)cn3)cc2)c1,-21.3,,"29.1 µM [falling, single point]"
CCn1c(=O)cc(SCC(=O)Nc2ccc(Cl)cc2)c2ccccc21,8.7,,"4.11 µM [rising, single point]"
COc1ccc2ccccc2c1-c1sc(Nc2ccccc2)n[n+]1-c1ccc(F)cc1,13.8,"0.0366 µM [rising, full curve, poor fit]","20.6 µM [falling, single point]"
O=C(COc1ccc(Cl)cc1)OCC(=O)N1CCCC1,-23.1,"0.184 µM [falling, full curve, poor fit]","0.326 µM [falling, partial curve]"
CCc1ccc(CNC(=O)c2ccc(OC)c(OC3CCN(C(C)C)CC3)c2)nc1,17.9,,
COC(=O)c1[nH]c2ccc(C)cc2c1NC(=O)CN1CCCc2ccccc21,-11.2,"6.51 µM [falling, single point]","6.51 µM [falling, single point]"
COc1ccc(OC)c2[nH]c(=O)c(CCNC(=O)c3ccc(Br)o3)cc12,-17.8,"1.84 µM [rising, partial curve]","0.651 µM [rising, full curve]"
C=CCNC(=S)Nc1ccc(OC)c(S(=O)(=O)N2CCOCC2)c1,,"1.84 µM [falling, partial curve, poor fit]",

# From PubChem BioAssay AID2685 (National Center for Advancing Translational Sciences (NCATS), 2010)
